Measurements from paper PMC10122208.
No constants are given. Whether binding was seen depends on the method and setting. In cells and extracts the contact can be indirect. Some binding calls cover weakened binding; strength is not graded here.

Sequences of proteins named here, by UniProt entry; tags and fusion partners are left off.
UniProt Q9ULZ3: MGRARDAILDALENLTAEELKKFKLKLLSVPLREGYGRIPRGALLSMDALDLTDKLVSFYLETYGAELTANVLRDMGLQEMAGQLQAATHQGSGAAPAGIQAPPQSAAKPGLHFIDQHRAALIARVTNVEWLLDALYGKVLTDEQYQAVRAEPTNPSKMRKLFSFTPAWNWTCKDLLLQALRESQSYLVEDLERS

Target: apoptosis-associated speck-like protein containing CARD (ASC) (human (endogenous in HBECs)) (UniProt Q9ULZ3)
Assay: co-IP; lysates (1 uM DTT + 10% Triton X100, protease inhibitor) of HBECs from patients with asthma, RV-A16 infection (RIG-I blot: in the presence of HDM); 100 ug pooled protein pre-cleared with Protein A beads, 10 ug anti-ASC antibodies overnight at 4 C, Protein A beads 2 h at room temperature; Western blot for RIG-I or MDA5

binding: binds
B1: retinoic acid-inducible gene I (RIG-I) (protein, UniProt O95786 1-925)
chain: MTTEQRRSLQAFQDYIRKTLDPTYILSYMAPWFREEEVQYIQAEKNNKGPMEAATLFLKFLLELQEEGWFRGFLDALDHAGYSGLYEAIESWDFKKIEKLEEYRLLLKRLQPEFKTRIIPTDIISDLSECLINQECEEILQICSTKGMMAGAEKLVECLLRSDKENWPKTLKLALEKERNKFSELWIVEKGIKDVETEDLEDKMETSDIQIFYQEDPECQNLSENSCPPSEVSDTNLYSPFKPRNYQLELALPAMKGKNTIICAPTGCGKTFVSLLICEHHLKKFPQGQKGKVVFFANQIPVYEQQKSVFSKYFERHGYRVTGISGATAENVPVEQIVENNDIIILTPQILVNNLKKGTIPSLSIFTLMIFDECHNTSKQHPYNMIMFNYLDQKLGGSSGPLPQVIGLTASVGVGDAKNTDEALDYICKLCASLDASVIATVKHNLEELEQVVYKPQKFFRKVESRISDKFKYIIAQLMRDTESLAKRICKDLENLSQIQNREFGTQKYEQWIVTVQKACMVFQMPDKDEESRICKALFLYTSHLRKYNDALIISEHARMKDALDYLKDFFSNVRAAGFDEIEQDLTQRFEEKLQELESVSRDPSNENPKLEDLCFILQEEYHLNPETITILFVKTRALVDALKNWIEGNPKLSFLKPGILTGRGKTNQNTGMTLPAQKCILDAFKASGDHNILIATSVADEGIDIAQCNLVILYEYVGNVIKMIQTRGRGRARGSKCFLLTSNAGVIEKEQINMYKEKMMNDSILRLQTWDEAVFREKILHIQTHEKFIRDSQEKPKPVPDKENKKLLCRKCKALACYTADVRVIEECHYTVLGDAFKECFVSRPHPKPKQFSSFEKRAKIFCARQNCSHDWGIHVKYKTFEIPVIKIESFVVEDIATGVQTLYSKWKDFHFEKIPFDPAEMSK
